Test results as given in paper PMC10795974.
No constants are given. Whether binding was seen depends on the method and setting. In cells and extracts the contact can be indirect. Some binding calls cover weakened binding; strength is not graded here.

The chains behind the UniProt entries cited, without tags or fusion partners.
UniProt P54252: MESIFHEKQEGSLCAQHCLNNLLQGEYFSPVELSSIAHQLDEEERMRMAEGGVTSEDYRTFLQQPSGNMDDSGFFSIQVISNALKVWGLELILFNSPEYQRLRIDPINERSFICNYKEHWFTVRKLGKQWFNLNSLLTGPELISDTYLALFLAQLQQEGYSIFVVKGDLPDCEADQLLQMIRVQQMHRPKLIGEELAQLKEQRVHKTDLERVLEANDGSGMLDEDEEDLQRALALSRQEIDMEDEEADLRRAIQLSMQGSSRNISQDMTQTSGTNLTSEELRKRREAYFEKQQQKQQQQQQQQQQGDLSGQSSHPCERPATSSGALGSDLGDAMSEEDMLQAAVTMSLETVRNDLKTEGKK

Target: ATXN3 (human (endogenous in SH-SY5Y)) (UniProt P54252)
Test: proximity ligation; Duolink kit (Olink Bioscience) in SH-SY5Y cells; nuclei counterstained with DAPI; ATXN3-depleted (siRNA) cells and non-specific Ab (IgG) as controls

binding: binds
Substance: Polynucleotide Kinase 3'-Phosphatase (from UniProt Q96T60 1-521)
